At least one compound was matched to its structure with a doubt left.
Test system: patients with fasting triglyceride levels >200 mg/dl and <500 mg/dl despite statin therapy
Test: 12-week study: lipoprotein particle concentration (VLDL, LDL, HDL; nuclear magnetic resonance)
Type: in vivo, human
Details: 12 weeks, placebo-adjusted Hodges-Lehmann median
Text: Parameters (a)-(z) can be measured in accordance with any clinically acceptable methodology. For example, triglycerides, total cholesterol, HDL-C and fasting blood sugar can be sample from serum and analyzed using standard photometry techniques. VLDL-TG, LDL-C and VLDL-C can be calculated or determined using serum lipoprotein fractionation by preparative ultracentrifugation and subsequent quantitative analysis by refractometry or by analytic ultracentrifugal methodology. Apo A1, Apo B and hsCRP can be determined from serum using standard nephelometry techniques. Lipoprotein (a) can be determined from serum using standard turbidimetric immunoassay techniques. LDL particle number and particle size can be determined using nuclear magnetic resonance (NMR) spectrometry. Remnants lipoproteins and LDL-phospholipase A2 can be determined from EDTA plasma or serum and serum, respectively, using enzymatic immunoseparation techniques. Oxidized LDL, intercellular adhesion molecule-1 and interleukin-2 levels can be determined from serum using standard enzyme immunoassay techniques. These techniques are described in detail in standard textbooks, for example Tietz Fundamentals of Clinical Chemistry, 6th Ed. (Burtis, Ashwood and Borter Eds.), WB Saunders Company.
A multi-center, placebo-controlled, randomized, double-blind, 12-week study was performed to evaluate the efficacy and safety of >96% E-EPA in patients with fasting triglyceride levels >200 mg/dl and <500 mg/dl despite statin therapy (the mean of two qualifying entry values needed to be >185 mg/dl and at least one of the values needed to be >200 mg/dl). The primary objective of the study was to determine the efficacy of >96% E-EPA 2 g daily and 4 g daily, compared to placebo, in lowering fasting TG levels in patients with high risk for cardiovascular disease and with fasting TG levels 200 mg/dl and <500 mg/dl, despite treatment to LDL-C goal on statin therapy.
The secondary objectives of this study were the following: • 1. To determine the safety and tolerability of >96% E-EPA 2 g daily and 4 g daily; • 2. To determine the effect of >96% E-EPA on lipid and apolipoprotein profiles including total cholesterol (TC), non-high-density lipoprotein cholesterol (non-HDL-C), low density lipoprotein cholesterol (LDL-C), high density lipoprotein cholesterol (HDL-C), and […]; • 3. To determine the effect of >96% E-EPA on lipoprotein associated phospholipase A2 (Lp-PLA2) from baseline to week 12; • 4. To determine the effect of >96% E-EPA on low-density lipoprotein (LDL) particle number and size; • 5. To determine the effect of >96% E-EPA on oxidized LDL; • 6. To determine the effect of >96% E-EPA on fasting plasma glucose (FPG) and hemoglobin A1c (HbA1c); • 7. To determine the effect of >96% E-EPA on insulin resistance; • 8. To determine the effect of >96% E-EPA on high-sensitivity C-reactive protein (hsCRP); • 9. To determine the effects of >96% E-EPA 2 g daily and 4 g daily on the incorporation of fatty acids into red blood cell membranes and into plasma phospholipids; • 10. To explore the relationship between baseline fasting TG levels and the reduction in fasting TG levels; and • 11. To explore the relationship between changes of fatty acid concentrations in plasma and red blood cell membranes, and the reduction in fasting TG levels.
The primary efficacy variable for the double-blind treatment period was percent change in TG from baseline to Week 12 endpoint. […]

[1] = listed as >96% ethyl-EPA composition
[2] = listed as ethyl eicosapentaenoate

## CC/C=C\C/C=C\C/C=C\C/C=C\C/C=C\CCCC(=O)OCC [AMR101, ethyl eicosapentaenoate]
[1]
  Large HDL particle concentration, Median Change From Baseline IPE 4 g/day vs Placebo: significantly reduced
  Large LDL particle concentration, Median Change From Baseline IPE 4 g/day vs Placebo: significantly increased
  Large VLDL particle concentration, Median Change From Baseline IPE 4 g/day vs Placebo: significantly reduced
  Medium VLDL particle concentration, Median Change From Baseline IPE 4 g/day vs Placebo: significantly reduced
  Small LDL particle concentration, Median Change From Baseline IPE 4 g/day vs Placebo: significantly reduced
  Total HDL particle concentration, Median Change From Baseline IPE 4 g/day vs Placebo: significantly reduced
  Total LDL particle concentration, Median Change From Baseline IPE 4 g/day vs Placebo: significantly reduced
  Total VLDL particle concentration, Median Change From Baseline IPE 4 g/day vs Placebo: significantly reduced
[2]
  Large HDL particle concentration, Median Change From Baseline IPE 4 g/day vs Placebo: significantly reduced
  Large LDL particle concentration, Median Change From Baseline IPE 4 g/day vs Placebo: increased
  Large VLDL particle concentration, Median Change From Baseline IPE 4 g/day vs Placebo: significantly reduced
  Medium VLDL particle concentration, Median Change From Baseline IPE 4 g/day vs Placebo: significantly reduced
  Small LDL particle concentration, Median Change From Baseline IPE 4 g/day vs Placebo: significantly reduced
  Total HDL particle concentration, Median Change From Baseline IPE 4 g/day vs Placebo: significantly reduced
  Total LDL particle concentration, Median Change From Baseline IPE 4 g/day vs Placebo: significantly reduced
  Total VLDL particle concentration, Median Change From Baseline IPE 4 g/day vs Placebo: significantly reduced
